PubChem BioAssay AID1259308 – NCATS – 2017
The deposit covers about 59,000 reagents; below is a part drawn at random. About 1,510 of them (2.6%) count as active. 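Calls use total luciferase alone and ignore viability, so some active siRNAs may act by altering cell number.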 Reagents against one gene are numbered here. Not all columns of the deposit are shown. No sequences are given here.

Aim: 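Candidate targets for better recombinant protein yield in mammalian cells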 (primary screen)
System: human HEK293 embryonic kidney cells stably expressing firefly luciferase (HEK-CMV-Luc2-Hygro)
Knock-down reagent: single siRNA against human genes, 0.8 pmol siRNA per well
Time to read-out: 72 h
Detection: 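Luciferase light (ONE-Glo) measured on one replicate plate set and viability (CellTiter-Glo) on the other, scaled to a negative control siRNA, with robust z-scores and luciferase per cell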
Direction: total luciferase, z-score and total luciferase, % of control: higher = more reporter protein produced
Call rule: 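Active when the median/MAD z-score for overall luciferase is greater than 3; a gene was taken forward for validation with new siRNAs if at least two of its three siRNAs passed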
Meaning of the calls: active = raised luciferase; inactive = no rise

Against ZNF56P (zinc finger protein 56, pseudogene) #1, the values are total luciferase, z-score 0.0712; total luciferase, % of control 83.3; inactive.
Silencing of ZNF56P (zinc finger protein 56, pseudogene) #2 resulted in: total luciferase, z-score -0.341; total luciferase, % of control 75.1; inactive.
Against ZNF56P (zinc finger protein 56, pseudogene) #3, the values are total luciferase, z-score -0.531; total luciferase, % of control 71.3; inactive.
ZDHHC22 (zDHHC palmitoyltransferase 22) #1 scored total luciferase, z-score 1.05; total luciferase, % of control 103; inactive.
ZDHHC22 (zDHHC palmitoyltransferase 22) #2 gave total luciferase, z-score 0.16; total luciferase, % of control 85.1; inactive.
ZDHHC22 (zDHHC palmitoyltransferase 22) #3 scored total luciferase, z-score 0.434; total luciferase, % of control 90.5; inactive.
Against RPS27AP5 (ribosomal protein S27a pseudogene 5) #1, the entry reads total luciferase, z-score -1.54; total luciferase, % of control 51.3; inactive.
After knock-down of RPS27AP5 (ribosomal protein S27a pseudogene 5) #2 the results were total luciferase, z-score -1.63; total luciferase, % of control 49.4; inactive.
RPS27AP5 (ribosomal protein S27a pseudogene 5) #3 showed total luciferase, z-score -3.23; total luciferase, % of control 17.7; inactive.
MTMR3 (myotubularin related protein 3) #1 showed total luciferase, z-score -0.502; total luciferase, % of control 71.9; inactive.
MTMR3 (myotubularin related protein 3) #2 gave total luciferase, z-score -1.09; total luciferase, % of control 60.1; inactive.
MTMR3 (myotubularin related protein 3) #3 scored total luciferase, z-score -1.47; total luciferase, % of control 52.7; inactive.
COX7B2 (cytochrome c oxidase subunit 7B2) #1 showed total luciferase, z-score 1.33; total luciferase, % of control 108; inactive.
For COX7B2 (cytochrome c oxidase subunit 7B2) #2, the entry reads total luciferase, z-score -2.26; total luciferase, % of control 36.9; inactive.
Silencing of COX7B2 (cytochrome c oxidase subunit 7B2) #3 gave: total luciferase, z-score 0.21; total luciferase, % of control 86.1; inactive.
After knock-down of MEOX2 (mesenchyme homeobox 2) #1, the record shows total luciferase, z-score 0.412; total luciferase, % of control 90.1; inactive.
For MEOX2 (mesenchyme homeobox 2) #2, the entry reads total luciferase, z-score 0.396; total luciferase, % of control 89.8; inactive.
After knock-down of MEOX2 (mesenchyme homeobox 2) #3, the screen gave total luciferase, z-score 0.722; total luciferase, % of control 96.3; inactive.
With knock-down of FITM2 (fat storage inducing transmembrane protein 2) #1 the results were total luciferase, z-score -0.683; total luciferase, % of control 68.3; inactive.
FITM2 (fat storage inducing transmembrane protein 2) #2 showed total luciferase, z-score 1.89; total luciferase, % of control 119; inactive.
For FITM2 (fat storage inducing transmembrane protein 2) #3, the entry reads total luciferase, z-score 0.436; total luciferase, % of control 90.6; inactive.
After knock-down of RGS4 (regulator of G protein signaling 4) #1, the screen gave total luciferase, z-score 0.277; total luciferase, % of control 87.4; inactive.
Silencing of RGS4 (regulator of G protein signaling 4) #2 came out at: total luciferase, z-score 1.29; total luciferase, % of control 108; inactive.
RGS4 (regulator of G protein signaling 4) #3 gave total luciferase, z-score -1.82; total luciferase, % of control 45.7; inactive.
Against SPAG7 (sperm associated antigen 7) #1, the values are total luciferase, z-score -1.05; total luciferase, % of control 61; inactive.
SPAG7 (sperm associated antigen 7) #2 scored total luciferase, z-score -0.356; total luciferase, % of control 74.8; inactive.
With knock-down of SPAG7 (sperm associated antigen 7) #3, the record shows total luciferase, z-score -1.37; total luciferase, % of control 54.7; inactive.
Against RSRC2 (arginine and serine rich coiled-coil 2) #1, the entry reads total luciferase, z-score 0.29; total luciferase, % of control 87.6; inactive.
After knock-down of RSRC2 (arginine and serine rich coiled-coil 2) #2, the screen gave total luciferase, z-score -0.104; total luciferase, % of control 79.8; inactive.
RSRC2 (arginine and serine rich coiled-coil 2) #3 scored total luciferase, z-score 1.56; total luciferase, % of control 113; inactive.
TBC1D1 (TBC1 domain family member 1) #1 showed total luciferase, z-score 3.03; total luciferase, % of control 142; active.
TBC1D1 (TBC1 domain family member 1) #2 scored total luciferase, z-score 0.153; total luciferase, % of control 84.9; inactive.
With knock-down of TBC1D1 (TBC1 domain family member 1) #3, the record shows total luciferase, z-score -0.948; total luciferase, % of control 63; inactive.

Records listed so far with an active call, once more:
TBC1D1 (TBC1 domain family member 1) #1 → total luciferase, z-score = 3.03; total luciferase, % of control = 142; outcome = active
